PubChem BioAssay AID1259308 – NCATS – 2017
Aim: 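Candidate targets for better recombinant protein yield in mammalian cells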 (primary screen). Cell system: human HEK293 embryonic kidney cells stably expressing firefly luciferase (HEK-CMV-Luc2-Hygro). Knock-down reagent: single siRNA against human genes, 0.8 pmol siRNA per well. Duration: 72 h. Read-out: 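Luciferase light (ONE-Glo) measured on one replicate plate set and viability (CellTiter-Glo) on the other, scaled to a negative control siRNA, with robust z-scores and luciferase per cell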. Reading the numbers: total luciferase, z-score: higher = more reporter protein produced. Active means: 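An siRNA counts as active if its total luciferase robust z-score exceeds 3; genes with two or more such siRNAs out of three were retested with fresh siRNAs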. Calls: active = raised luciferase; inactive = no rise.
Here is one part, drawn at random, of about 59,000 reagents. Over the whole deposit, about 1,510 (2.6%) got an active call. 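Calls use total luciferase alone and ignore viability, so some active siRNAs may act by altering cell number.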 Further read-outs or replicates are left out here. Reagent sequences are not shown.

How did the screen score DCAF4 [SID160737615]?
total luciferase, z-score: 0.189; outcome: inactive

How did the screen score DCAF4 [SID160737616]?
total luciferase, z-score: 0.276; outcome: inactive

What did the screen give for DCAF4 [SID160737617]?
total luciferase, z-score: -0.898; outcome: inactive

What is on record for CEMIP [SID160745829]?
total luciferase, z-score: -0.239; outcome: inactive

Which result is listed for CEMIP [SID160745832]?
total luciferase, z-score: -1.16; outcome: inactive

For CEMIP [SID160745833], what does the deposit list?
total luciferase, z-score: -0.573; outcome: inactive

With OR4K14 [SID160756006], how do the results read?
total luciferase, z-score: -0.265; outcome: inactive

With OR4K14 [SID160756008], what was measured?
total luciferase, z-score: 0.579; outcome: inactive

What is on record for OR4K14 [SID160756009]?
total luciferase, z-score: 1.07; outcome: inactive

What is on record for LOC727961 (retired record) [SID160734263]?
total luciferase, z-score: 1.31; outcome: inactive

How did the screen score LOC727961 (retired record) [SID160771350]?
total luciferase, z-score: 0.226; outcome: inactive

For LOC727961 (retired record) [SID160771351], what was measured?
total luciferase, z-score: -0.0357; outcome: inactive

With ARHGAP27 [SID160732662], what was measured?
total luciferase, z-score: -0.726; outcome: inactive

How did the screen score ARHGAP27 [SID160760942]?
total luciferase, z-score: -0.44; outcome: inactive

What did the screen give for ARHGAP27 [SID160760943]?
total luciferase, z-score: 0.945; outcome: inactive

With ARHGAP27 [SID160760944], what was measured?
total luciferase, z-score: -0.962; outcome: inactive

What is on record for ARHGAP27 [SID160760945]?
total luciferase, z-score: -0.411; outcome: inactive

Which result is listed for ARHGAP27 [SID160760946]?
total luciferase, z-score: -2.38; outcome: inactive

With IFT38 [SID160735346], what was measured?
total luciferase, z-score: -1.66; outcome: inactive

What is on record for IFT38 [SID160735347]?
total luciferase, z-score: -0.844; outcome: inactive

With IFT38 [SID160735348], what was measured?
total luciferase, z-score: -1.86; outcome: inactive

Which result is listed for ARFGAP1 [SID160744220]?
total luciferase, z-score: 0.0744; outcome: inactive

What is on record for ARFGAP1 [SID160744221]?
total luciferase, z-score: 1.04; outcome: inactive

Which result is listed for ARFGAP1 [SID160744222]?
total luciferase, z-score: 3.84; outcome: active

For ALG14 [SID160760757], what does the deposit list?
total luciferase, z-score: -0.833; outcome: inactive

For ALG14 [SID160760758], what was measured?
total luciferase, z-score: 0.237; outcome: inactive

Which result is listed for ALG14 [SID160760759]?
total luciferase, z-score: 1.03; outcome: inactive

How did the screen score MRPL22 [SID160733028]?
total luciferase, z-score: -0.0574; outcome: inactive

What did the screen give for MRPL22 [SID160739047]?
total luciferase, z-score: -0.278; outcome: inactive

With MRPL22 [SID160739048], what was measured?
total luciferase, z-score: -0.792; outcome: inactive

What is on record for TYMS [SID160718487]?
total luciferase, z-score: -0.0559; outcome: inactive

What is on record for TYMS [SID160718488]?
total luciferase, z-score: -0.0184; outcome: inactive

How did the screen score TYMS [SID160718490]?
total luciferase, z-score: -0.802; outcome: inactive

What is on record for BBS10 [SID160749324]?
total luciferase, z-score: -0.158; outcome: inactive

For BBS10 [SID160749325], what does the deposit list?
total luciferase, z-score: 1.94; outcome: inactive

Which result is listed for BBS10 [SID160749326]?
total luciferase, z-score: -0.544; outcome: inactive

For GFRA3 [SID160770593], how do the results read?
total luciferase, z-score: -0.479; outcome: inactive

How did the screen score GFRA3 [SID160770600]?
total luciferase, z-score: -0.387; outcome: inactive

For GFRA3 [SID160770607], how do the results read?
total luciferase, z-score: 0.702; outcome: inactive

What did the screen give for GRK7 [SID160757107]?
total luciferase, z-score: -0.958; outcome: inactive

For GRK7 [SID160757108], what does the deposit list?
total luciferase, z-score: 0.241; outcome: inactive

Which result is listed for GRK7 [SID160757109]?
total luciferase, z-score: 1.67; outcome: inactive

Quoted from the entries so far (6 entries):
GFRA3 [SID160770593] → total luciferase, z-score: -0.479; outcome: inactive
GFRA3 [SID160770600] → total luciferase, z-score: -0.387; outcome: inactive
GFRA3 [SID160770607] → total luciferase, z-score: 0.702; outcome: inactive
GRK7 [SID160757107] → total luciferase, z-score: -0.958; outcome: inactive
GRK7 [SID160757108] → total luciferase, z-score: 0.241; outcome: inactive
GRK7 [SID160757109] → total luciferase, z-score: 1.67; outcome: inactive
